This is an account of results in publication PMC7453023.

By UniProt entry, the sequences of proteins in these tests, tags left out. Residues count along the entry.
UniProt O08573: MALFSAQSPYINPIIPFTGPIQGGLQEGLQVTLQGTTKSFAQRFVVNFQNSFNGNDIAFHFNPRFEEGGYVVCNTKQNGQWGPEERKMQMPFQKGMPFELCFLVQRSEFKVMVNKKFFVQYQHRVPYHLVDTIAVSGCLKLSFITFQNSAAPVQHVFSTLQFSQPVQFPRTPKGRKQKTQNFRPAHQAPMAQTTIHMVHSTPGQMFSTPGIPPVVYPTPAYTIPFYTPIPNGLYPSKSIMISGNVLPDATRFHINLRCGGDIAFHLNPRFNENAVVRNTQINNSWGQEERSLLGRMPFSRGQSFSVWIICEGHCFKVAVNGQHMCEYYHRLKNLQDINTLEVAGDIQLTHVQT
UniProt Q07113, residues 36-2483: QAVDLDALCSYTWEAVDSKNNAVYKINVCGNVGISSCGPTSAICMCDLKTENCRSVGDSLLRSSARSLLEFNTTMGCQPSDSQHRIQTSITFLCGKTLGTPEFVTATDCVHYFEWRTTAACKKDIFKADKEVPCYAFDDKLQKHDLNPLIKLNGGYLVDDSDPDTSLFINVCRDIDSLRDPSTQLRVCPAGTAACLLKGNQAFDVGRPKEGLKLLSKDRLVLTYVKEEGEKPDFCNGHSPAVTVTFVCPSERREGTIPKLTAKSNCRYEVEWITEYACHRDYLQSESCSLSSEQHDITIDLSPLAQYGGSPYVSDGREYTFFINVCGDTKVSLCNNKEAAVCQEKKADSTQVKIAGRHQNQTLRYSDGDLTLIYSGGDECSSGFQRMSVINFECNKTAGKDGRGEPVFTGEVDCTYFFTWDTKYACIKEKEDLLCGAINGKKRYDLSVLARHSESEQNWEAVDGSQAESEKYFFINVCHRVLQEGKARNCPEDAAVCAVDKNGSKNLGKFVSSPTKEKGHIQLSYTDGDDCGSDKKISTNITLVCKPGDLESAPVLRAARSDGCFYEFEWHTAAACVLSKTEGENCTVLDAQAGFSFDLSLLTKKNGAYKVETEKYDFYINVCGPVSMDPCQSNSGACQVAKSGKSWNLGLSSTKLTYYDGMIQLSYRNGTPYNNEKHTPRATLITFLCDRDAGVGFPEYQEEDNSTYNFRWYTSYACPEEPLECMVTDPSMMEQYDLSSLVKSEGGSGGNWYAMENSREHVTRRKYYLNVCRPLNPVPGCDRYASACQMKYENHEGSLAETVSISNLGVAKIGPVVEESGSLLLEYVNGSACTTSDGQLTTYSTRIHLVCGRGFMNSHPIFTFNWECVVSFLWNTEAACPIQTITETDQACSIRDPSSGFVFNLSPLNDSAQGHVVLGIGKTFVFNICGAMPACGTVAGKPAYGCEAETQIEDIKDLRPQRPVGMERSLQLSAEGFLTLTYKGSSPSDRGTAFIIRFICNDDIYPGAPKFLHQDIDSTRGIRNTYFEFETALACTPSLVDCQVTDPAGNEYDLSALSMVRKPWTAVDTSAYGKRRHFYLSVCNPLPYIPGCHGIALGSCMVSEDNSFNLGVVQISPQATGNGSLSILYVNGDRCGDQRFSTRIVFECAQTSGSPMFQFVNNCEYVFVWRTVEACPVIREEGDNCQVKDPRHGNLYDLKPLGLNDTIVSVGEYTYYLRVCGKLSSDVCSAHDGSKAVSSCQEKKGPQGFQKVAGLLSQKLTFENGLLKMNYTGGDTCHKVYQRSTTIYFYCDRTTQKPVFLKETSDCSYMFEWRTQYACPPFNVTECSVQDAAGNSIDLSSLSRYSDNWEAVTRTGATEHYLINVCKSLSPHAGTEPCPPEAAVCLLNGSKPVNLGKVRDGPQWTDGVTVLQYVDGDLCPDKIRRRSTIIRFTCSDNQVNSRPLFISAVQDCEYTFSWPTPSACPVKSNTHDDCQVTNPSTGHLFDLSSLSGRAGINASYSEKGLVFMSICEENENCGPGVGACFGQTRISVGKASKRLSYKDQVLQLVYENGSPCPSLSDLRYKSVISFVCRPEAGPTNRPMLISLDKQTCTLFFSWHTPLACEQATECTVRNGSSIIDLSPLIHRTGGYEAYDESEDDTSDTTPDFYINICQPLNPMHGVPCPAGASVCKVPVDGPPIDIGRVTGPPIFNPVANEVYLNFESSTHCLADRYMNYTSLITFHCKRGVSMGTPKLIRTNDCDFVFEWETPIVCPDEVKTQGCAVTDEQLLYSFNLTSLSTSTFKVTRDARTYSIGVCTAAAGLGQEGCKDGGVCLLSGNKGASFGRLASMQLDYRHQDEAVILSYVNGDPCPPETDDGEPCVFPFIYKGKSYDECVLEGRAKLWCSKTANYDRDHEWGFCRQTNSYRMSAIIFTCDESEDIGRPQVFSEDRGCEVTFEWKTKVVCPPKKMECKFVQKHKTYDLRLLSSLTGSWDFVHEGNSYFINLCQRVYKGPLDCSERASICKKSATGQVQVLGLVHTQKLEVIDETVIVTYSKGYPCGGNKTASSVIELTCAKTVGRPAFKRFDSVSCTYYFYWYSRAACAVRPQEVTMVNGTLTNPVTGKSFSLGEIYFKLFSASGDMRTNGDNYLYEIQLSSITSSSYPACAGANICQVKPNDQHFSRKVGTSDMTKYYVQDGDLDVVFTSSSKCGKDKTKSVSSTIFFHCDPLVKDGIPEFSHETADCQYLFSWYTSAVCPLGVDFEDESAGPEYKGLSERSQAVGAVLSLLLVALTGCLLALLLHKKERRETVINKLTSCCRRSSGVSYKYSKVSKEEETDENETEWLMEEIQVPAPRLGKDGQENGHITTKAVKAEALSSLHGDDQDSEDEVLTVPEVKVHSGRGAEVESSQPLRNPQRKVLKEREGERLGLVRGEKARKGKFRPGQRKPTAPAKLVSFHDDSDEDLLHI

The target of assay [1] is Flag-tagged Gal-9 (galectin-9), wild type (UniProt O08573). In words: co-IP; CMT93 cells, Western blot; also in β3gnt2 or β4galt1 gene-knockdown CMT93 cells (binding of Gal-9 to Lamp2 decreased). A general note: In western blotting, separated proteins are transferred to a membrane and probed.
For assay [2] the target is unchanged. Kind of assay: co-IP; Lamp1/2-/- CMT93 cells stably reconstituted with Flag-tagged Gal-9 and V5-tagged Lamp2 or its mutants, Western blot.

No constants are given. Whether binding was seen depends on the method and setting. In cells and extracts the contact can be indirect. Some binding calls cover weakened binding; strength is not graded here. For part of these data: Sequences can lack the tags named with a protein.

For the molecule “Igf2r (Insulin-like growth factor 2 receptor or cation-independent mannose-6-phosphate receptor, CI-M6PR) (from UniProt Q07113 36-2483)”, the binding result in assay [1] is reported as “binds”.

B1: lysosome-associated membrane protein 2 (Lamp2) (protein, UniProt P17047 26-415)
chain: LIVNLTDSKGTCLYAEWEMNFTITYETTNQTNKTITIAVPDKATHDGSSCGDDRNSAKIMIQFGFAVSWAVNFTKEASHYSIHDIVLSYNTSDSTVFPGAVAKGVHTVKNPENFKVPLDVIFKCNSVLTYNLTPVVQKYWGIHLQAFVQNGTVSKNEQVCEEDQTPTTVAPIIHTTAPSTTTTLTPTSTPTPTPTPTPTVGNYSIRNGNTTCLLATMGLQLNITEEKVPFIFNINPATTNFTGSCQPQSAQLRLNNSQIKYLDFIFAVKNEKRFYLKEVNVYMYLANGSAFNISNKNLSFWDAPLGSSYMCNKEQVLSVSRAFQINTFNLKVQPFNVTKGQYSTAQDCSADEDNFLVPIAVGAALGGVLILVLLAYFIGLKRHHTGYEQF
modifications: N-glycosylated (poly-LacNAc)
Take B1: in assay [1], the binding result was “binds”.

B2: V5-tagged Lamp2, wild type (protein, UniProt P17047 26-415)
chain: B1 chain
modifications: N-glycosylated
Consider B2, for which, in assay [2], the binding entry is given as “binds”.
